Values quoted from earlier work in patent US7771935B2, “Evolving new molecular function” (President and Fellows of Harvard College, priority 2002, dated 2010).
At least one compound was matched to its structure with a doubt left. *1 amine or outer side, *2 acyl side, *3 side chain or, on linkers, in order; H or OH if unused. Where a SMILES comes first, the peptide text is derived from it. CO = O=C([*:1])[*:2]

Columns and labels:
papain = target: T1, papain (Carica papaya, UniProt P00784); conditions: known binding of the free ligand; cited from earlier work
T1 construct: purchased Sigma
T1 sequence (P00784 134-345): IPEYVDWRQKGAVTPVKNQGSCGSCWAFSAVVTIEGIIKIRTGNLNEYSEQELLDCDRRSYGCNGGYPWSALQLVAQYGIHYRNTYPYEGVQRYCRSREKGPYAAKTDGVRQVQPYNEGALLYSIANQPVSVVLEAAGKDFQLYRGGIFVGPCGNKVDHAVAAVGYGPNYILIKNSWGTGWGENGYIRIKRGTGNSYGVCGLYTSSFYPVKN

chymotrypsin = target: T2, chymotrypsin (Bos taurus, UniProt P00766, DEL14-15/DEL147-148); conditions: known binding of the free ligand; cited from earlier work
T2 construct: purchased Sigma

CC(C)[C@H](NC(=O)[C@H](CCCNC(=N)N)NC(=O)N[C@@H](Cc1ccccc1)C(=O)O)C(=O)N[C@H](C=O)CCCNC(=N)N [antipain] ({Phe-CO}-Arg-Val-Arg-aldehyde)
affinity for papain (papain): binds only to papain
affinity for chymotrypsin (chymotrypsin): binds only to papain
